42 sequences from article PMC7819943, “Rice protein-binding microarrays: a tool to detect cis-acting elements near promoter regions in rice” can be followed below.

The other results are listed elsewhere or left out.

The assay has as its target T1, OsSMF1 (Oryza sativa, UniProt Q6ZLB0 1-436).
T1 sequence: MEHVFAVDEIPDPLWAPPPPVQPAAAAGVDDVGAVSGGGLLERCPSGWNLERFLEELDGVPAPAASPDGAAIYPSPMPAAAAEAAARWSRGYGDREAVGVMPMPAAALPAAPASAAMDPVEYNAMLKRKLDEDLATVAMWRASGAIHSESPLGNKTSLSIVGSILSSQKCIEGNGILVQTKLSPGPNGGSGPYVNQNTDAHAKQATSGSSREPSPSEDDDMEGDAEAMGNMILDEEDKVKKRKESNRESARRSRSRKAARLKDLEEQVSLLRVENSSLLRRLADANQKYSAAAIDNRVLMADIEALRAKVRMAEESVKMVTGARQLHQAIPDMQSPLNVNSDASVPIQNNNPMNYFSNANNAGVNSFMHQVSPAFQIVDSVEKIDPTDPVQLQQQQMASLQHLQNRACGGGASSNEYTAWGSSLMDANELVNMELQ
Description: protein-binding microarray (RPBM); PBS, 2% BSA, 51.3 ng/ul salmon testes DNA, 50 uM zinc acetate, 200 nM TF, 25 C, 1 h; high values mean tight binding. The conditions noted are these: protein: recombinant; tags: N-terminal polyhistidine and DsRed monomer fusion (pET32a); chain copies: 2; label: CyDye5-dUTP incorporated in the synthesized complementary strand; 3' TTTTT single-stranded linker to array surface; dsDNA, one strand shown. Summed up:
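Binding signal here means per-feature fluorescence intensity in arbitrary units. The values were read on an Axon 4000B scanner after a custom Agilent array, double-stranded by primer extension with Cy5-dUTP, was incubated with 200 nM protein at 25 °C for 1 h in PBS with 2% BSA, salmon testes DNA and 50 µM zinc acetate, then washed. The proteins were transcription factors with an N-terminal polyhistidine tag and DsRed, expressed in E. coli BL21-CodonPlus and purified on Ni–NTA.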
Turning to “AGAGTTAAACAAATAAATAAACTAAATGAATTCGTACCTTCGGAGTCACCTAGTGCAG”, the binding signal is 19200 fluorescence intensity (a.u.).

As to “GCGTTATGACACCGGCTGGCAATGACAAGACGGTTGATGACGGAGTCACCTAGTGCAG”, the binding signal is 3730 fluorescence intensity (a.u.).

“GGTTAATTTGACATAAACAGCGTCAGAAATGTAGTTCATGCGGAGTCACCTAGTGCAG”: the binding signal was 3310 fluorescence intensity (a.u.).

Regarding “TTTCTCCTCCTCGTTCTTAGGTGGCTTTTGCCATTGGATACGGAGTCACCTAGTGCAG”, the binding signal is 3760 fluorescence intensity (a.u.).

For the sequence “CTTACCAACAAATCTCTCAACCGTTTGATTTAATAATTATCGGAGTCACCTAGTGCAG”, the binding signal is 14900 fluorescence intensity (a.u.).

For “CAGTCTACAGTAAGTCACTTCCGCTTCCTTTTAGGCCTTCCGGAGTCACCTAGTGCAG”, the binding signal was 3330 fluorescence intensity (a.u.).

In the case of “ACTCTGGGTTTCCGTGTCCAATTTTGACTGTCCGTCTTATCGGAGTCACCTAGTGCAG”, the binding signal was 3440 fluorescence intensity (a.u.).

Consider “AGGTGATGAAACGCATATAGGCTTACCTCGTAATGCAAGTCGGAGTCACCTAGTGCAG”, for which the binding signal is 3600 fluorescence intensity (a.u.).

Take “TTGTATGCTTCTACTACTATACTAGTGTAATGCATTGCTACGGAGTCACCTAGTGCAG”: the binding signal was 3400 fluorescence intensity (a.u.).

In the case of “GTCACAACAGGTGTTCAGCCGTGTGTCCGTGCGATGCAGCCGGAGTCACCTAGTGCAG”, the binding signal was 3830 fluorescence intensity (a.u.).

With “CTCGCCGAGCTGTAGACCTGTAGTTAGTCACCTGCAGGCTCGGAGTCACCTAGTGCAG”, the binding signal was 3230 fluorescence intensity (a.u.).

For “GCGGAGGTCGACCTTGGCGAGGTCGTCCACGTCCGGGTGCCGGAGTCACCTAGTGCAG”, the binding signal is 3340 fluorescence intensity (a.u.).

Turning to “GAGCATCGGGTTGCTTCGGCTTCGGATCCGGCGGGCGGTGCGGAGTCACCTAGTGCAG”, the binding signal is 25400 fluorescence intensity (a.u.).

Turning to “TGAGCATGAGCATATGCGTTGCAACATTGCTGACGCCATACGGAGTCACCTAGTGCAG”, the binding signal is 5340 fluorescence intensity (a.u.).

Turning to “TGTTACGGGACGCATATGAGGGTGTGGGTAAGCCGTGCAACGGAGTCACCTAGTGCAG”, the binding signal was 3250 fluorescence intensity (a.u.).

Turning to “ATGGTCAAGTGTCCTCAAATTATGGTCCTTTATATCTTCCCGGAGTCACCTAGTGCAG”, the binding signal was 3750 fluorescence intensity (a.u.).

As for “CACATCTACTATCCATTATATGACGCCAATATCTTGTGGTCGGAGTCACCTAGTGCAG”, the binding signal is 3160 fluorescence intensity (a.u.).

As to “GAAAATCTGTGGGAGGGGAGGGGAGGGGACGAGGGGACAGCGGAGTCACCTAGTGCAG”, the binding signal is 11100 fluorescence intensity (a.u.).

Consider “TATTCAATGCGCGAGGAGGCGCATCATCCGGTGTCATTGCCGGAGTCACCTAGTGCAG”, for which the binding signal was 3330 fluorescence intensity (a.u.).

For “TGCGTGTTTGATGATATACACGTGCGTATATGTCTACCGTCGGAGTCACCTAGTGCAG”, the binding signal is 3880 fluorescence intensity (a.u.).

Regarding “CATCTCAGCAATAGACTAGATTAATAGTAAACCATCTCAACGGAGTCACCTAGTGCAG”, the binding signal was 3390 fluorescence intensity (a.u.).

Take “GGGGAGGCCGACGAGGAGGGTTGGTGCGGATCCGCCAGCGCGGAGTCACCTAGTGCAG”: the binding signal is 3330 fluorescence intensity (a.u.).

Turning to “TTAGTCAAAGACTGGTCACCACCCCACTTTGCTTTTGGCGCGGAGTCACCTAGTGCAG”, the binding signal is 3840 fluorescence intensity (a.u.).

“GTAGATAGCGATTAGTTATGTCCTGCGTCATCCTTATCATCGGAGTCACCTAGTGCAG”: the binding signal was 4030 fluorescence intensity (a.u.).

For “CGCCTCGCCATCGACCTCCACGTGGCGGGGTGACGTGTCACGGAGTCACCTAGTGCAG”, the binding signal was 31900 fluorescence intensity (a.u.).

As to “TGATTTGCACATACGTGTCATCAACCATATGGTTTGTGCACGGAGTCACCTAGTGCAG”, the binding signal is 7880 fluorescence intensity (a.u.).

Take “TCGCCACAGATGCTTGGCTCTGACGTGGTGGGTTAAGAGGCGGAGTCACCTAGTGCAG”: the binding signal is 7740 fluorescence intensity (a.u.).

Turning to “TCCCTACACCGTCGCCGTCAGCCGTTGGACATCTAGATCACGGAGTCACCTAGTGCAG”, the binding signal was 4990 fluorescence intensity (a.u.).

Consider “ATTGGGCCGATAAAATGGGCCGCGTGGGCGGTGGAGTCGACGGAGTCACCTAGTGCAG”, for which the binding signal was 3290 fluorescence intensity (a.u.).

As to “ACTTTTATGTTGCTTGACGGCAGTCATCAACCCAGCAATACGGAGTCACCTAGTGCAG”, the binding signal was 3720 fluorescence intensity (a.u.).

With “ATATACAATGAAACATTATACCCAAGTCATGATGTGTACACGGAGTCACCTAGTGCAG”, the binding signal is 5070 fluorescence intensity (a.u.).

As to “TTGTTAATATTGTGTCAAAGTATAGTCACCCTCCAAACACCGGAGTCACCTAGTGCAG”, the binding signal was 4790 fluorescence intensity (a.u.).

As for “AAGGTTGATGTGGCAGCCTGACATGTGGGGCCCACGTGGGCGGAGTCACCTAGTGCAG”, the binding signal was 34100 fluorescence intensity (a.u.).

On to “TTGTCCTTGTGAAATGAAATGCTTGTTGAATTTATGGCTGCGGAGTCACCTAGTGCAG”, for which the binding signal is 4160 fluorescence intensity (a.u.).

“GTGTGTGAGTTGCGTGTGCTGTGACAGCTGTCACGGGTTGCGGAGTCACCTAGTGCAG”: the binding signal is 5730 fluorescence intensity (a.u.).

Consider “AGAAATATGGTTTCTTCCCCGTCAATACCTCCAGCATCACCGGAGTCACCTAGTGCAG”, for which the binding signal is 3280 fluorescence intensity (a.u.).

In the case of “CTCGGCTCGCAGACGCCACGCGATGTCTCTCTTCGTCCGGCGGAGTCACCTAGTGCAG”, the binding signal was 4990 fluorescence intensity (a.u.).

Take “GAAGGGAAAGACGGGGATGAGGCACCGGCGGAGGGGCGCGCGGAGTCACCTAGTGCAG”: the binding signal was 3170 fluorescence intensity (a.u.).

Turning to “AAGTACGCCTTCGAAGCACGATTACGTAATGGTTGCATTACGGAGTCACCTAGTGCAG”, the binding signal is 4840 fluorescence intensity (a.u.).

“TTGCAGCAGAATACTTACCACGACAGAATTTGAGGATCTACGGAGTCACCTAGTGCAG”: the binding signal was 29500 fluorescence intensity (a.u.).

“ATATGGTTCGTATGTCCTCAACGCAAAGGCCAGCTTGGCCCGGAGTCACCTAGTGCAG”: the binding signal is 30300 fluorescence intensity (a.u.).

Take “AACGTCGGTTCCCAAACATTTGTTTTCCTTACCAATCGGGCGGAGTCACCTAGTGCAG”: the binding signal is 3490 fluorescence intensity (a.u.).
